Values from PubChem BioAssay AID1159584 (Peter MacCallum Cancer Centre, 2016)
Screen: 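Genes that CDH1-null MCF10A cells selectively depend on to survive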 (primary screen). Cell system: human MCF10A breast epithelial cells, parental and CDH1-null. Reagent: siRNA against human genes. Measurement: 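Cell viability by CellTiter-Glo ATP luminescence, each line scaled to the mean of mock wells across plates, then CDH1-null over parental ratio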. Reading the numbers: CDH1-null / parental viability ratio: higher = CDH1-null cells survive relatively better than parental.
The deposit covers about 18,000 reagents; this is an unselected part. Further read-outs or replicates are left out here. Not given: the amount of reagent, the time to read-out.

HNRNPA0
- CDH1-null / parental viability ratio: 0.87

IQCC
- CDH1-null / parental viability ratio: 0.87

TPST1
- CDH1-null / parental viability ratio: 0.79

SUCLG2
- CDH1-null / parental viability ratio: 0.67

ASB5
- CDH1-null / parental viability ratio: 1.05

COL12A1
- CDH1-null / parental viability ratio: 0.84

EXD1
- CDH1-null / parental viability ratio: 1.04

GPNMB
- CDH1-null / parental viability ratio: 0.88

SLCO1B3
- CDH1-null / parental viability ratio: 0.99

PAGE2B
- CDH1-null / parental viability ratio: 0.82

RDH11
- CDH1-null / parental viability ratio: 1.03

SLC5A1
- CDH1-null / parental viability ratio: 0.92

TUBGCP5
- CDH1-null / parental viability ratio: 1.04

RPS6KB1
- CDH1-null / parental viability ratio: 1.16

Part of the list above, set out differently:
IQCC: CDH1-null / parental viability ratio = 0.87
TPST1: CDH1-null / parental viability ratio = 0.79
